Assay results as given in paper PMC3631101.
Where a chain is given by its changes, count along the chain named. These are yes or no findings as the source states them, for the method shown. Some results given as binding are weak or reduced against the parent protein; the word gives no strength. Sequences can lack the tags named with a protein.

Sequences of proteins named here, by UniProt entry; tags and fusion partners are left off. A change or cut given only in a name is not applied to a line headed by its entry.
UniProt P29311: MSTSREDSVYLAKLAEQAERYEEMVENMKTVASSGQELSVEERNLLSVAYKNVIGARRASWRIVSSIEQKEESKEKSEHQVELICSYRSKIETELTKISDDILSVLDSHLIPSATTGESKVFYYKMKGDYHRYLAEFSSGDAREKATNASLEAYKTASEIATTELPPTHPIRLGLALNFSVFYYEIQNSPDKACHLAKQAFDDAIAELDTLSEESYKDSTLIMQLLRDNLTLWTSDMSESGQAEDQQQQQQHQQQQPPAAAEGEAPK

Tests used:
[1] = biological target: T1, Ser358Ala HA–SIK2 adenovirally expressed in primary rat adipocytes (human) (UniProt Q9H0K1); experiment: far-Western, overlay or dot blot; SIK2 or HA–SIK2 immunoprecipitated from stimulated adipocytes, resolved by SDS/PAGE and blotted; membranes incubated overnight with 5 μg/ml recombinant yeast His–14-3-3 (BMH1/2) in TBS-T with 5% BSA and 0.5 M NaCl, washed in TBS-T with 0.5 M NaCl; detected with an anti-His antibody; both purified
T1 sequence: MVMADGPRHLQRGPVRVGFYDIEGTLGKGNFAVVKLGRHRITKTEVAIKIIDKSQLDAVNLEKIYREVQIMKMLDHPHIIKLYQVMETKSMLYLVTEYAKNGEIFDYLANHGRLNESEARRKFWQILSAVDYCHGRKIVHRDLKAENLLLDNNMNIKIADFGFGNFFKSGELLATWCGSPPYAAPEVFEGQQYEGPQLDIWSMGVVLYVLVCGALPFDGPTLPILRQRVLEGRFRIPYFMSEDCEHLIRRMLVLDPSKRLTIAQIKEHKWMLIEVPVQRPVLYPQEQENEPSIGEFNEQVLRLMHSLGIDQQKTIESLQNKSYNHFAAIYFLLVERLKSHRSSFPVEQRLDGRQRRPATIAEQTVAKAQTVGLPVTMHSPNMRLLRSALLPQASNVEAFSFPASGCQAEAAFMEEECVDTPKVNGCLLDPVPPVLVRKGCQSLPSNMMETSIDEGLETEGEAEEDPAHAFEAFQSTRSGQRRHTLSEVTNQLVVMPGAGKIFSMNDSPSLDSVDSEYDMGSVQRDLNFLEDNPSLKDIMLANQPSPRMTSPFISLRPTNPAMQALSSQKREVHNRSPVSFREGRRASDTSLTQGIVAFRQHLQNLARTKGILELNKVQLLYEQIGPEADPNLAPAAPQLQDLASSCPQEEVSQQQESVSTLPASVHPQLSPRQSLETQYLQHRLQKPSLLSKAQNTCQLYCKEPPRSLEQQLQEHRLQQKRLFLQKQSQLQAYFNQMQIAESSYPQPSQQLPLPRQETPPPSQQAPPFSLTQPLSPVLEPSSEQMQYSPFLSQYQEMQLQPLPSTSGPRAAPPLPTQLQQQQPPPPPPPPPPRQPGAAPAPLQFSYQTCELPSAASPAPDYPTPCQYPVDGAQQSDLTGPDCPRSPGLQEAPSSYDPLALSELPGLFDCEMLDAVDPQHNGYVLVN

[2] = biological target: T2, Ser587Ala HA–SIK2 adenovirally expressed in primary rat adipocytes (human) (UniProt Q9H0K1); experiment: as above
T2 sequence: T1 sequence with A358S, S587A

binding [1]: no binding | binding [2]: binds
Substance: recombinant yeast His–14-3-3 (BMH1/2) (from UniProt P29311 1-267; P34730 1-273)
